Measurements from the supplement of paper PMC12823440, “Inhibitors supercharge kinase turnover through native proteolytic circuits” (Nature, 2025).
Counter-ions that a name gives are not always drawn. This is one part of the list. The calls rarely recur for the same compound in another form.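 Kinases, fused to nanoluciferase, were expressed in K562 cells; luminescence was measured every 4 h from 2 to 18 h as percent of control (DMSO = 100%, positive control = 0%). A time point is decreased if signal falls significantly (2 sigma). Hits were called by the authors by a rule that is not shown; the count of time points alone does not decide it.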

The chains behind the UniProt entries cited, without tags or fusion partners. Where a name states a change or a piece, a line headed by the entry shows the natural chain unless it says otherwise.
UniProt Q05397, whole entry, looked up: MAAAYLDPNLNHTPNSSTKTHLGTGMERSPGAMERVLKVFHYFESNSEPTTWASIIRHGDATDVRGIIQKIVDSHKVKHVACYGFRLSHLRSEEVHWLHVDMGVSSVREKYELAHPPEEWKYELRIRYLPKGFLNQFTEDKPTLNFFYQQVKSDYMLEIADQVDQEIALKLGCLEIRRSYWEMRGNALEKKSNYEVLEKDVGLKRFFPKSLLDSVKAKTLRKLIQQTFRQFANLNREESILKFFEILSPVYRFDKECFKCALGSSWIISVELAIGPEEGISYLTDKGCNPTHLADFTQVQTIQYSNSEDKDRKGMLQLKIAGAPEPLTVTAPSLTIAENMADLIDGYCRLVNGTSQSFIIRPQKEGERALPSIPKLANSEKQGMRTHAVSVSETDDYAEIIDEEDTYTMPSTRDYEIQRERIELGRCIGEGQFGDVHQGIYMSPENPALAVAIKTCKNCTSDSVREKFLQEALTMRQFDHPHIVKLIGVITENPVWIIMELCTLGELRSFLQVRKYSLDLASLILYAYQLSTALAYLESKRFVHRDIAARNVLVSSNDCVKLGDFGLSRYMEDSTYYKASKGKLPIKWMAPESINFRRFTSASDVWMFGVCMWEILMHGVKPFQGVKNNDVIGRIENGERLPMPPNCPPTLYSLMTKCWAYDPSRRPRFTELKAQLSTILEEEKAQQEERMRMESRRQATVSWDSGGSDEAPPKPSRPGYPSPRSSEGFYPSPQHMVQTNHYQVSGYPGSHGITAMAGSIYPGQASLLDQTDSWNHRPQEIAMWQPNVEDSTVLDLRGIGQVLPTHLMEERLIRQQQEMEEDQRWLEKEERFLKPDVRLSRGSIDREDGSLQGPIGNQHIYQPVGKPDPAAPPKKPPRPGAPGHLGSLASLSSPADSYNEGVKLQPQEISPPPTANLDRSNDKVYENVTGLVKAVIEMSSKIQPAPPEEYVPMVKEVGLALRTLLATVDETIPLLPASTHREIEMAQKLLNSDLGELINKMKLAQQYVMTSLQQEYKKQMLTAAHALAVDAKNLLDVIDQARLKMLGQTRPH
UniProt Q14289, whole entry, looked up: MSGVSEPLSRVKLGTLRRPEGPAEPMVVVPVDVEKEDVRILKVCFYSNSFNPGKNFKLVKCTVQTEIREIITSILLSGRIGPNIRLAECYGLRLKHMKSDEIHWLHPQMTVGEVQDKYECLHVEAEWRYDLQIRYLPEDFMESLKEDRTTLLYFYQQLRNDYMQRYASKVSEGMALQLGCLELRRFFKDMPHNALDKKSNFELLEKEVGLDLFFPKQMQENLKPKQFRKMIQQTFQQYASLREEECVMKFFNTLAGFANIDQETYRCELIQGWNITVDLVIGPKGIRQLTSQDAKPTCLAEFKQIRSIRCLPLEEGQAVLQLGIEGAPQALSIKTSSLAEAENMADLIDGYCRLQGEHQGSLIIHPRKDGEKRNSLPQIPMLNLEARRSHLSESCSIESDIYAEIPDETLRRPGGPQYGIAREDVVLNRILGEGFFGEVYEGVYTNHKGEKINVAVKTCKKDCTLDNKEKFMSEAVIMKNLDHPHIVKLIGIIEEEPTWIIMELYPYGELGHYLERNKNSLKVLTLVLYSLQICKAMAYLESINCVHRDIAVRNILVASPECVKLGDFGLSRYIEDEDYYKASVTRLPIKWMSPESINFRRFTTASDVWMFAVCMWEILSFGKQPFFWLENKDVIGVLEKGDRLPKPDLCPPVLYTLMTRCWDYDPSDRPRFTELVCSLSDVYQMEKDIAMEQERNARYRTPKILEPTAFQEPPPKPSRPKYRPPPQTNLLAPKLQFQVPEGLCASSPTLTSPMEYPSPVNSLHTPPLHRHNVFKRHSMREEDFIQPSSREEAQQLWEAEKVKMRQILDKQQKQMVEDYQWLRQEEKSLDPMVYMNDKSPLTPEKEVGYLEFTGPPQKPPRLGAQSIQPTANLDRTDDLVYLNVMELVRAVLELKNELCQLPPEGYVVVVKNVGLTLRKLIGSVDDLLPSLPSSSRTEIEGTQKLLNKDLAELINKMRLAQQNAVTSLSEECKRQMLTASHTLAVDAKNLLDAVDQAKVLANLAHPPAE
UniProt Q13546: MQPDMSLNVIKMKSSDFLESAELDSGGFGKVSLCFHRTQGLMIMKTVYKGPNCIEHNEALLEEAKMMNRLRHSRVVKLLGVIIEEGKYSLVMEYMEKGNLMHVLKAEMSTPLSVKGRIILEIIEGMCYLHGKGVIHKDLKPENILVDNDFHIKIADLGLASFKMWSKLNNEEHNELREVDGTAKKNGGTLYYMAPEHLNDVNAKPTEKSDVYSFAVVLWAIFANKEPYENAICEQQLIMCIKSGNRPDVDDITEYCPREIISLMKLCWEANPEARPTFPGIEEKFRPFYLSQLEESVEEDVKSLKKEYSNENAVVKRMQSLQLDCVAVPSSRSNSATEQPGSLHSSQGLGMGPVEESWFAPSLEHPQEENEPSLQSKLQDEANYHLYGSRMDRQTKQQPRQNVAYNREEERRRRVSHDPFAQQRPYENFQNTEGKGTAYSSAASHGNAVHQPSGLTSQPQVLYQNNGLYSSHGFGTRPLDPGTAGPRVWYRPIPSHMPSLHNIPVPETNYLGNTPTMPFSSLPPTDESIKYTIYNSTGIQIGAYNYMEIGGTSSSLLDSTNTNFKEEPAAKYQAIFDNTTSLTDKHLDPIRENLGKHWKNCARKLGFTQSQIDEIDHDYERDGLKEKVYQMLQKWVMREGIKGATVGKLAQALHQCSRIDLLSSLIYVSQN
UniProt Q01974, whole entry: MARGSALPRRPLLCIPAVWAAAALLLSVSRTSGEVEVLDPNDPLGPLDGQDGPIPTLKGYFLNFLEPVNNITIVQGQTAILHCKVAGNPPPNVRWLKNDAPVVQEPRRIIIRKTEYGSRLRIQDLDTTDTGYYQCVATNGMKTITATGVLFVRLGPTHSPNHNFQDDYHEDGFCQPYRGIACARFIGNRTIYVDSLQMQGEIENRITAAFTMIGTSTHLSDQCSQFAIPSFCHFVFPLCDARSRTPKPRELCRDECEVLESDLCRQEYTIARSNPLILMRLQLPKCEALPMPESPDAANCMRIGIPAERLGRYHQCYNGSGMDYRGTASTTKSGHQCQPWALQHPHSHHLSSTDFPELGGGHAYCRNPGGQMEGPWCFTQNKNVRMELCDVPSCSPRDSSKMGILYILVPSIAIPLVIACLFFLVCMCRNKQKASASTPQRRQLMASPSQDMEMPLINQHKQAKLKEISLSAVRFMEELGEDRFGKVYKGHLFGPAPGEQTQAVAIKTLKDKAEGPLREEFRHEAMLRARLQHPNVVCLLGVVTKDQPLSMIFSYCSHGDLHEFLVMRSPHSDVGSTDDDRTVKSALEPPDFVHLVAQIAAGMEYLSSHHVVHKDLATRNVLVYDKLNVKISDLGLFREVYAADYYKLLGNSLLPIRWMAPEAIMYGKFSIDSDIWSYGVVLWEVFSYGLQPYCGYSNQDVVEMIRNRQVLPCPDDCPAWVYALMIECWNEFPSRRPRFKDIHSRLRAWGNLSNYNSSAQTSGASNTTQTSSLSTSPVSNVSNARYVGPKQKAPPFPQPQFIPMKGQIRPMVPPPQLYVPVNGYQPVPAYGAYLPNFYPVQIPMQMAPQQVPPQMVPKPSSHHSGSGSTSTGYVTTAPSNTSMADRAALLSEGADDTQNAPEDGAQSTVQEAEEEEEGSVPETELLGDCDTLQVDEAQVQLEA
UniProt Q15208: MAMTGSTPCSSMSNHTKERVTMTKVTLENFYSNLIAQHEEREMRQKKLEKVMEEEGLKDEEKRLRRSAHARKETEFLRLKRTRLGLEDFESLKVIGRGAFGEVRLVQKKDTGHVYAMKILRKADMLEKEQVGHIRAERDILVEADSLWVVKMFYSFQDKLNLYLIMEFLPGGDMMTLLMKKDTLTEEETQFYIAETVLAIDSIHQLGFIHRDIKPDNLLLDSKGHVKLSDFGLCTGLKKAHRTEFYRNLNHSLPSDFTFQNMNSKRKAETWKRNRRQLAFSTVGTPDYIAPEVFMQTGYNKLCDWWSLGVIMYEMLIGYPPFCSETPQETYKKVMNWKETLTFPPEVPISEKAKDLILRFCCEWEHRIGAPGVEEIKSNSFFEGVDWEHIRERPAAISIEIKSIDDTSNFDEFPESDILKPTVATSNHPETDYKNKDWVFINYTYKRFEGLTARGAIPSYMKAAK
UniProt P29597: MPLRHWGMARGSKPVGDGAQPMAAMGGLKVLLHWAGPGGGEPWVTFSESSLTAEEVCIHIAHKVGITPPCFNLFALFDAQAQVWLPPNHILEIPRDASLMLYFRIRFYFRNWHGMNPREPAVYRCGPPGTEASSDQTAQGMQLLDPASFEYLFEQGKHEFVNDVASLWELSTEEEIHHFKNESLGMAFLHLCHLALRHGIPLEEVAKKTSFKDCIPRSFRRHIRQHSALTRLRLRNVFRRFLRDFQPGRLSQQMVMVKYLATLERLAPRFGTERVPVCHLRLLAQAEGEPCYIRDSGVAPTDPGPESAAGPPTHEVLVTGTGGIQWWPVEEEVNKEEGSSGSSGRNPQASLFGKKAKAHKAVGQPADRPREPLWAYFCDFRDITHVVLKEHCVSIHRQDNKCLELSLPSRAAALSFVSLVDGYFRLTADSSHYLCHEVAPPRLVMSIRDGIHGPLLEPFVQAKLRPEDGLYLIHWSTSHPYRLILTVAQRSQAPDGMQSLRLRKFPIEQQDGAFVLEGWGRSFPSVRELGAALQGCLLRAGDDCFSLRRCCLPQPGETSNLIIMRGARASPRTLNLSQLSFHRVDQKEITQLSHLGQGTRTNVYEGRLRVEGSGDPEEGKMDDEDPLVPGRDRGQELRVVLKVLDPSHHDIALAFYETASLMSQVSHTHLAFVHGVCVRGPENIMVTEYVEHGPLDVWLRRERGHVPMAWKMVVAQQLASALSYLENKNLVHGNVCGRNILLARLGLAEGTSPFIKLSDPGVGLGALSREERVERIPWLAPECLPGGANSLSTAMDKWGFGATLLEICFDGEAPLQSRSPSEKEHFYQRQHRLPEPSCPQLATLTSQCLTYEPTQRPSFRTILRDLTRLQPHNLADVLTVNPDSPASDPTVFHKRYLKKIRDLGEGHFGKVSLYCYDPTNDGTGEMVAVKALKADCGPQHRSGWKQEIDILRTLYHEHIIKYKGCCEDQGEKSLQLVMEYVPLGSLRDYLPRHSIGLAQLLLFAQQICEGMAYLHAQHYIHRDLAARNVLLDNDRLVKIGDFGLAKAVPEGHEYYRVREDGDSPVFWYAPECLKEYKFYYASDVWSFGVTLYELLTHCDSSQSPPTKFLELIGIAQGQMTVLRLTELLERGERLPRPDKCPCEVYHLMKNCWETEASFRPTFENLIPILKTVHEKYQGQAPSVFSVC
UniProt Q6PHR2: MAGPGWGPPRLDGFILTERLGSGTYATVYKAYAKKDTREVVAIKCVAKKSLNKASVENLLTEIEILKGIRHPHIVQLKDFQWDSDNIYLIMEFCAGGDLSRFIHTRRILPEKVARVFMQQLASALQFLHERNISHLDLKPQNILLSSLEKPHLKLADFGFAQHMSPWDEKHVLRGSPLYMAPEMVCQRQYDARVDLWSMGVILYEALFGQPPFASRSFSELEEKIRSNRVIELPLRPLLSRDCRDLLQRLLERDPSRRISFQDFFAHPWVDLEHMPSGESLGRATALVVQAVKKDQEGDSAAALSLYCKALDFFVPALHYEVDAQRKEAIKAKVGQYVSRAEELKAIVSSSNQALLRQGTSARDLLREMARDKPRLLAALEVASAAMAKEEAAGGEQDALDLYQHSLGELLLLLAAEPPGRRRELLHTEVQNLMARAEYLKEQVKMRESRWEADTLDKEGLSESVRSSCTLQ

Legend:
Assay in all cases: number of time points (of 5) at which kinase-Nluc abundance scored as decreased, DMSO-normalised (count); higher = more persistent destabilization
Details in all cases: K562; 2-18 h
[1] = target: PRKCA (UniProt P17252)
[2] = target: PTK2 (UniProt Q05397)
[3] = target: PTK2B (UniProt Q14289)
[4] = target: RAF1 (UniProt P04049)
[5] = target: RAF1_S257L (clone: RAF1_mut) (UniProt P04049)
[6] = target: RET (UniProt P07949)
[7] = target: RET_M918T (clone: RET_mut) (UniProt P07949)
[8] = target: RIOK1 (UniProt Q9BRS2)
[9] = target: RIPK1 (UniProt Q13546)
[10] = target: RIPK2 (UniProt O43353)
[11] = target: ROR2 (UniProt Q01974)
[12] = target: RPS6KA1 (UniProt Q15418)
[13] = target: SPHK1 (UniProt Q9NYA1)
[14] = target: SRC (UniProt P12931)
[15] = target: STK24 (UniProt Q9Y6E0)
[16] = target: STK38 (UniProt Q15208)
[17] = target: SYK (UniProt P43405)
[18] = target: TEC (UniProt P42680)
[19] = target: TYK2 (UniProt P29597)
[20] = target: ULK3 (UniProt Q6PHR2)

SMILES | number of time points [1] | number of time points [2] | number of time points [3] | number of time points [4] | number of time points [5] | number of time points [6] | number of time points [7] | number of time points [8] | number of time points [9] | number of time points [10] | number of time points [11] | number of time points [12] | number of time points [13] | number of time points [14] | number of time points [15] | number of time points [16] | number of time points [17] | number of time points [18] | number of time points [19] | number of time points [20]
COc1cc(N2CCOCC2)ccc1Nc1ncc(Cl)c(Nc2ccccc2NS(C)(=O)=O)n1 (2.5 µM) | 0 | 0 | 0 | 0 | 0 | 0 | 0 | 0 | 0 | 0 | 0 | 0 | 0 | 0 | 0 | 0 | 0 | 0 | 0 | 0
CNC(=O)c1cc2c(Oc3ccc(NC(=S)NC(=O)Cc4ccccc4)cc3F)ccnc2cc1OC [TAS-115 mesylate] (10 µM) | 0 | 3 | 3 | 1 | 0 | 0 | 0 | 0 | 2 | 0 | 2 | 0 | 2 | 0 | 0 | 0 | 0 | 3 | 0 | 4
O=C(Nc1cccc(C(F)(F)F)c1)c1cccc2cc(Oc3cc(CO)ncn3)ccc12 (10 µM) | 0 | 0 | 0 | 0 | 0 | 0 | 0 | 0 | 0 | 0 | 0 | 0 | 0 | 0 | 0 | 0 | 0 | 0 | 0 | 0
Oc1ccc(/C=C/c2cc(O)cc(O)c2)cc1 [Resveratrol] (10 µM) | 0 | 0 | 0 | 0 | 0 | 0 | 0 | 0 | 0 | 0 | 0 | 0 | 0 | 0 | 0 | 0 | 0 | 0 | 0 | 0
Cc1ccc(C(=O)Nc2sc(Nc3ccccc3)nc2C(N)=O)cc1 (10 µM) | 0 | 0 | 0 | 0 | 0 | 0 | 0 | 0 | 0 | 0 | 0 | 0 | 0 | 0 | 0 | 0 | 0 | 0 | 0 | 0
O=[N+]([O-])c1ccc(Nc2nc(N3CCOCC3)nc(N3CCOCC3)n2)cc1 (10 µM) | 0 | 0 | 0 | 0 | 0 | 0 | 0 | 0 | 0 | 0 | 0 | 0 | 0 | 0 | 0 | 0 | 0 | 0 | 0 | 0
CC(=O)N1CCC(c2cc(-c3ccc(NC(=O)c4cccn(-c5ccc(F)cc5)c4=O)cc3F)c3c(N)ncnn23)CC1 (0.5 µM) | 0 | 0 | 0 | 0 | 0 | 0 | 0 | 0 | 0 | 0 | 0 | 0 | 0 | 0 | 0 | 0 | 0 | 0 | 0 | 0
NC(=O)N1CCC(CC(=O)N2CCC([C@H]3c4ncc(Br)cc4CCc4cc(Cl)cc(Br)c43)CC2)CC1 [Lonafarnib] (2.5 µM) | 0 | 0 | 0 | 0 | 0 | 0 | 0 | 0 | 0 | 0 | 0 | 0 | 0 | 0 | 0 | 0 | 0 | 0 | 0 | 0
Nc1nccc(Oc2ccc(NC(=O)c3c[nH]cc(-c4ccc(F)cc4)c3=O)cc2F)c1Cl (10 µM) | 0 | 3 | 0 | 3 | 0 | 0 | 0 | 0 | 0 | 0 | 0 | 0 | 1 | 0 | 0 | 1 | 0 | 0 | 3 | 5
COc1ccccc1C(=O)/C=C/c1ccccc1C(=O)O (10 µM) | 0 | 0 | 0 | 0 | 0 | 0 | 0 | 0 | 0 | 0 | 0 | 0 | 0 | 0 | 0 | 0 | 0 | 0 | 0 | 0
Cc1ccn2c(C(=O)C(=O)c3ccccc3)c(-c3ccccc3)nc2c1 (10 µM) | 0 | 0 | 0 | 0 | 0 | 0 | 0 | 0 | 0 | 0 | 0 | 0 | 0 | 0 | 0 | 0 | 0 | 0 | 0 | 0
Cc1cnc(NC2CCOCC2)nc1-n1cnc(C(=O)N[C@H](CN)c2cc(F)cc(Cl)c2)c1 (10 µM) | 0 | 0 | 0 | 0 | 0 | 0 | 0 | 0 | 0 | 0 | 0 | 0 | 0 | 0 | 0 | 0 | 0 | 0 | 0 | 0
COc1cc(/C=C/C(=O)N2CCC=CC2=O)cc(OC)c1OC [Piperlongumine] (2.5 µM) | 0 | 3 | 0 | 0 | 5 | 0 | 0 | 0 | 4 | 4 | 0 | 0 | 0 | 0 | 0 | 0 | 0 | 0 | 0 | 0
Cc1c(-c2ccc(C(N)=O)c3[nH]c4cc(C(C)(C)O)ccc4c23)cccc1-n1cnc2ccccc2c1=O (2.5 µM) | 0 | 0 | 0 | 0 | 0 | 0 | 0 | 0 | 0 | 0 | 0 | 0 | 0 | 0 | 0 | 0 | 0 | 0 | 0 | 0
C[C@@H]1CCNC(=O)c2cc3ccc(C(=O)Nc4nc5ccccc5n4CCCN(C)C)cc3n21 (10 µM) | 0 | 0 | 0 | 0 | 0 | 0 | 0 | 0 | 0 | 0 | 0 | 0 | 0 | 0 | 0 | 0 | 0 | 0 | 0 | 0
COc1cc2ncnc(Nc3ccccc3)c2cc1OC (10 µM) | 0 | 0 | 0 | 0 | 0 | 0 | 0 | 0 | 0 | 0 | 0 | 0 | 0 | 0 | 0 | 0 | 0 | 0 | 0 | 0
CC(C)N1CCN(c2ccc(Nc3ncc4cc5n(c4n3)C3(CCCCC3)CNC5=O)nc2)CC1 [Lerociclib (dihydrochloride)] (2 µM) | 0 | 0 | 0 | 0 | 1 | 0 | 0 | 2 | 1 | 0 | 0 | 0 | 0 | 0 | 0 | 0 | 0 | 0 | 2 | 0
O=c1cc(N2CCOCC2)nc2c3ccccc3ccn12 [Compound 401] (10 µM) | 0 | 0 | 0 | 0 | 3 | 0 | 0 | 0 | 0 | 0 | 0 | 0 | 0 | 0 | 0 | 0 | 0 | 0 | 0 | 0
CNc1nc(Nc2cn(C(C)(C)C#N)nc2C)ncc1C(F)(F)F (10 µM) | 0 | 0 | 0 | 0 | 0 | 0 | 0 | 0 | 0 | 0 | 0 | 0 | 0 | 0 | 0 | 0 | 0 | 0 | 0 | 0
C#Cc1cccc(Nc2ncnc3cc(OC)c(OCCCCCCC(=O)NO)cc23)c1 (2.5 µM) | 0 | 0 | 0 | 0 | 0 | 0 | 0 | 0 | 0 | 0 | 0 | 0 | 0 | 0 | 0 | 0 | 0 | 0 | 0 | 0
CN(C)S(=O)(=O)c1ccc2c(c1)/C(=C/c1cc3c([nH]1)CCCC3)C(=O)N2 (2.5 µM) | 3 | 2 | 0 | 0 | 0 | 0 | 0 | 0 | 0 | 0 | 1 | 1 | 2 | 0 | 0 | 0 | 0 | 0 | 0 | 0
CC(C)(C[C@H](N)C(=O)O)C(F)F [NV-5138 (hydrochloride)] (10 µM) | 0 | 0 | 0 | 0 | 0 | 0 | 0 | 0 | 0 | 0 | 0 | 0 | 0 | 0 | 0 | 0 | 0 | 0 | 0 | 0

Three entries out of the list, sorted by heavy-atom count, ascending.
SMILES | number of time points [1] | number of time points [2] | number of time points [3] | number of time points [4] | number of time points [5] | number of time points [6] | number of time points [7] | number of time points [8] | number of time points [9] | number of time points [10] | number of time points [11] | number of time points [12] | number of time points [13] | number of time points [14] | number of time points [15] | number of time points [16] | number of time points [17] | number of time points [18] | number of time points [19] | number of time points [20]
CN(C)S(=O)(=O)c1ccc2c(c1)/C(=C/c1cc3c([nH]1)CCCC3)C(=O)N2 (2.5 µM) | 3 | 2 | 0 | 0 | 0 | 0 | 0 | 0 | 0 | 0 | 1 | 1 | 2 | 0 | 0 | 0 | 0 | 0 | 0 | 0
Cc1cnc(NC2CCOCC2)nc1-n1cnc(C(=O)N[C@H](CN)c2cc(F)cc(Cl)c2)c1 (10 µM) | 0 | 0 | 0 | 0 | 0 | 0 | 0 | 0 | 0 | 0 | 0 | 0 | 0 | 0 | 0 | 0 | 0 | 0 | 0 | 0
CC(=O)N1CCC(c2cc(-c3ccc(NC(=O)c4cccn(-c5ccc(F)cc5)c4=O)cc3F)c3c(N)ncnn23)CC1 (0.5 µM) | 0 | 0 | 0 | 0 | 0 | 0 | 0 | 0 | 0 | 0 | 0 | 0 | 0 | 0 | 0 | 0 | 0 | 0 | 0 | 0
